Percent effect of library compounds

Sequences of proteins named here, by UniProt entry; tags and fusion partners are left off.
UniProt I6X8D2, whole entry: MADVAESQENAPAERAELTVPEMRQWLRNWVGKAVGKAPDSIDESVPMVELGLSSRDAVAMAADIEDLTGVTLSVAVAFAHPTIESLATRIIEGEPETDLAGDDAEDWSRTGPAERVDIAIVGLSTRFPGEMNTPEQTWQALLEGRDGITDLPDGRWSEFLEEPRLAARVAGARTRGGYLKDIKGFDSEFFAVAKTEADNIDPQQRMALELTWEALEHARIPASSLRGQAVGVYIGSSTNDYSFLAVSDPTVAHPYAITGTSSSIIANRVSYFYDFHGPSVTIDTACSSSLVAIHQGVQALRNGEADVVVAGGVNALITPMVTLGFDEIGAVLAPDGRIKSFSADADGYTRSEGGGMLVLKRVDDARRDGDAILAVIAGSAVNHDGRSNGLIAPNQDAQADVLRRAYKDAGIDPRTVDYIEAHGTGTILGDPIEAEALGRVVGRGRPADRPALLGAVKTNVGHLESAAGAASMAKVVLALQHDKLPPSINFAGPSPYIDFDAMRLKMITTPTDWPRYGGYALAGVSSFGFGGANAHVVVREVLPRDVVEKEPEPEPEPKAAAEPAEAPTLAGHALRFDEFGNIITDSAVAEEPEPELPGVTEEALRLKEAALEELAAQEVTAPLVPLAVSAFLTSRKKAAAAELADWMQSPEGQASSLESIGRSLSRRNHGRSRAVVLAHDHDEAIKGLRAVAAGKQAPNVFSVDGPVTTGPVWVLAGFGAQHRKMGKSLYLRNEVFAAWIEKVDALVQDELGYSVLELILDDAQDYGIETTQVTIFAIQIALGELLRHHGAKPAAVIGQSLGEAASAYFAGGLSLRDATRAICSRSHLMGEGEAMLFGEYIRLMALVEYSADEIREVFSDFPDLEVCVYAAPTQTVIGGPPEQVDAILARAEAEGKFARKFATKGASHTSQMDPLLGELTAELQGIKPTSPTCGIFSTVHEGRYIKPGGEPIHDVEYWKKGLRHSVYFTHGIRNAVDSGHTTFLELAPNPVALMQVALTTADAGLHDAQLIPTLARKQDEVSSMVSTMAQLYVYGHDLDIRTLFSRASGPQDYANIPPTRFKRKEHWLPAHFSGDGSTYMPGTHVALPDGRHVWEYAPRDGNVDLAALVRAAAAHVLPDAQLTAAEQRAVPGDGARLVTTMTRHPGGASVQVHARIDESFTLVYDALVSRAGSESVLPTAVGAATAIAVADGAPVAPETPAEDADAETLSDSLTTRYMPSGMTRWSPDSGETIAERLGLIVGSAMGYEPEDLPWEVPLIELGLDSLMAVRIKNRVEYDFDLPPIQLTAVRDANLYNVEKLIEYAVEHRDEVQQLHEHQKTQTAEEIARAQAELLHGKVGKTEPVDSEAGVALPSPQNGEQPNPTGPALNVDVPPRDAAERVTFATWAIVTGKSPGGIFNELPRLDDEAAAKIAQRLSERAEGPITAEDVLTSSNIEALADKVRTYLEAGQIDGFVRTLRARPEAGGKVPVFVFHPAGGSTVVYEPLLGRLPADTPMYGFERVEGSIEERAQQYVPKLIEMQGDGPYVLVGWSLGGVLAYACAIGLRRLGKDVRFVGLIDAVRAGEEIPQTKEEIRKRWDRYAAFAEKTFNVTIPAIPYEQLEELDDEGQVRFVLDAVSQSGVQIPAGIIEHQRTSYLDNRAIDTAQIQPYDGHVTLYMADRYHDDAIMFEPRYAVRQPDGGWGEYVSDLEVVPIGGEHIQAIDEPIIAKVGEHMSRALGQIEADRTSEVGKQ

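Enzyme assay of the thioesterase domain of polyketide synthase 13; the read-out is not stated. Target: Polyketide synthase Pks13, Mycobacterium tuberculosis (UniProt I6X8D2). Concentration: 30 µM. The record gives no direction; the compounds picked for IC50 retests had high values, so higher reads as stronger inhibition. Of about 67,000 compounds tested this way, about 300 (0.46%) reached 50% or more in at least one test.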

The filed quantity is “Percent Effect” (%).
The record does not define 0% and 100%; most values in the screen are far below 50% and negative numbers occur (in some assays of this library far below -100).
The compounds are a random part of those screened.

structure	effect
O=C(c1ccc(F)cc1)N1C[C@H]2CCC[C@@]2(COCc2ccccn2)C1	-35.62%
Cc1cc(C)n(C2CN(CC(=O)NCc3ccccn3)C2)n1	-1.555%
CN(Cc1noc(C(C)(C)C)n1)CC1CCN(CCO)CC1	-26.01%
O=C(NCCCF)Nc1ccc2nc(N3CCOCC3)oc2c1	2.981%
CC(O)(CN1CCC(O)CC1)c1cccc(C(F)(F)F)c1 (stereo not given)	-19.8%
Cc1ccc(C)c(S(=O)(=O)NC(=O)c2cccc3c2OCCO3)c1	-3.743%
COc1cc(CNC(C)Cn2ccnc2)cc2c1OCCO2 (stereo not given)	-20.57%
COc1ccc2c(c1)C(C(=O)NCCCN1CCN(C)CC1)CC(=O)N2 (stereo not given)	-23.45%
CN(Cc1cccnc1)C1CC2(CCN(c3ncc(F)cn3)CC2)C1	-10.66%
COc1ccc(CN2CCC3(CC2)CCN(CC(=O)N(C)C)C3=O)cc1	-22.15%
Cc1nn(C)c(C)c1C1CCCN1CC(=O)Nc1nccs1 (stereo not given)	-13.06%
CN(C)S(=O)(=O)N1CCC2(CC1)CC(OCC1CC1)CO2 (stereo not given)	10.28%
COCCNC(=O)c1nc(-c2ccc3cc[nH]c3c2)no1	-22.59%
C=C(Br)CN(C)C1CCN(CCc2ccccn2)CC1	-5.953%
O=C(CN(Cc1cccs1)C1CCS(=O)(=O)C1)NCC1CCCCC1 (stereo not given)	-35.98%
O=C(CCc1c(F)cccc1F)N1CCCCC1Cn1cccn1 (stereo not given)	-14.57%
Cc1ccc(C)c(C(NC(=O)C2CC2)c2cccnc2)c1 (stereo not given)	-25.25%
CC[C@@H]1N(C)CCC[C@]12CCC(=O)N2Cc1ccncc1	-3.12%
O=S(=O)(c1cccs1)N1Cc2nc(CN3CCCCC3)oc2C1	-13.1%
CCn1nc2c(cc1=O)CN(c1nc3ccccc3s1)CC2	0.9813%
Cc1occc1C(=O)NCC(=O)NCCOc1cccc(Cl)c1	-13.56%
CC(=O)N1CCC(N2CCN(Cc3ccc(C)o3)C(CCO)C2)CC1 (stereo not given)	4.341%
CSCCC(CO)NC(=O)c1sc(-c2ccccc2Cl)nc1C (stereo not given)	-11.67%
CC(C)(C)OC(=O)NCCC(=O)NCC(O)c1cccc(F)c1 (stereo not given)	-18.54%
CCOC(=O)N1[C@@H](c2ccco2)[C@@H](CO)C[C@]12CCCCNC2=O	11.3%
CCC/C=C/c1ccc(CN2CCCC2)cn1	-9.648%
CCN(C(=O)CN1CCCC1Cc1ccccc1)c1ccccc1 (stereo not given)	-2.263%
Cc1ccc2c(n1)N(Cc1cccnc1)CCN(C(=O)C1CC=CC1)C2	-12.19%
O=C(NCC(O)c1ccc(F)cc1F)c1ccccc1F (stereo not given)	0.5689%
CCCc1nc(N2CCCCCC2)c2c(n1)c(C)nn2CC	-12.36%
Cc1ccc2[nH]c(CN3CC[C@@H](N4CCN(C)CC4)[C@H](O)C3)c(C)c2c1	-1.54%
Cc1nc(CSc2ccc(C(F)(F)F)cn2)no1	-32.71%
O=c1[nH]c2nc(NCC3CCCO3)ncc2c(=O)n1-c1cccc(F)c1 (stereo not given)	-18.01%
CC(C)N(C)Cc1ncn2c1CN(S(=O)(=O)c1cccs1)CCC2	27.41%
O=C(CCc1ccsc1)N1CCCC(n2cncn2)C1 (stereo not given)	-1.106%
Cn1ccnc1CNC(=O)c1ccnc(C2CCNCC2)c1	15.42%
O=C(CNC(=O)c1cc(Cl)ccn1)Nc1nccs1	-29.86%
CCOC(=O)NC(C(=O)NCc1ccc(N2CCCCC2)nc1)C(C)C (stereo not given)	-4.273%
COCC(=O)N1CCC(C(=O)c2cc(C)cnc2N)CC1	12.72%
CCCC1CCCN(C(=O)Nc2ccnc(C(=O)N(C)C)c2)CC1 (stereo not given)	1.72%
O=C(NCc1noc(C2CCCO2)n1)c1cn2ccsc2n1 (stereo not given)	-19.47%
CSCCc1c(-c2ccccc2)ncn1CC(C)(C)N1CCOCC1	-20.11%
CNc1cccc(C2CN(C(=O)CNS(C)(=O)=O)CCO2)n1 (stereo not given)	27%
CC(C)N1CC2(CCCN(Cc3noc(C4CCCC4)n3)C2)CCC1=O (stereo not given)	-24.66%
O=C(c1ccncc1)N1CCN(Cc2cccnc2)c2ncccc2C1	-13.24%
CCc1cc(O)nc(C2CCCN(Cc3ccncc3)C2)n1 (stereo not given)	6.804%

The first 3 entries again:

structure,effect
O=C(c1ccc(F)cc1)N1C[C@H]2CCC[C@@]2(COCc2ccccn2)C1,-35.62%
Cc1cc(C)n(C2CN(CC(=O)NCc3ccccn3)C2)n1,-1.555%
CN(Cc1noc(C(C)(C)C)n1)CC1CCN(CCO)CC1,-26.01%

Measurements from “University of Dundee, Small-Polar-MMV Screening Library” (2021), ChEMBL document CHEMBL3988442.